Earlier results on one molecule are cited in patent US20260224761A1, “DUAL LABELLED COMPOUNDS TARGETING THE PROSTATE SPECIFIC MEMBRANE ANTIGEN” (priority 2023, published 2026).

Protein sequences, listed by entry. Tags and fused reporters are not part of them.
UniProt Q04609, whole entry: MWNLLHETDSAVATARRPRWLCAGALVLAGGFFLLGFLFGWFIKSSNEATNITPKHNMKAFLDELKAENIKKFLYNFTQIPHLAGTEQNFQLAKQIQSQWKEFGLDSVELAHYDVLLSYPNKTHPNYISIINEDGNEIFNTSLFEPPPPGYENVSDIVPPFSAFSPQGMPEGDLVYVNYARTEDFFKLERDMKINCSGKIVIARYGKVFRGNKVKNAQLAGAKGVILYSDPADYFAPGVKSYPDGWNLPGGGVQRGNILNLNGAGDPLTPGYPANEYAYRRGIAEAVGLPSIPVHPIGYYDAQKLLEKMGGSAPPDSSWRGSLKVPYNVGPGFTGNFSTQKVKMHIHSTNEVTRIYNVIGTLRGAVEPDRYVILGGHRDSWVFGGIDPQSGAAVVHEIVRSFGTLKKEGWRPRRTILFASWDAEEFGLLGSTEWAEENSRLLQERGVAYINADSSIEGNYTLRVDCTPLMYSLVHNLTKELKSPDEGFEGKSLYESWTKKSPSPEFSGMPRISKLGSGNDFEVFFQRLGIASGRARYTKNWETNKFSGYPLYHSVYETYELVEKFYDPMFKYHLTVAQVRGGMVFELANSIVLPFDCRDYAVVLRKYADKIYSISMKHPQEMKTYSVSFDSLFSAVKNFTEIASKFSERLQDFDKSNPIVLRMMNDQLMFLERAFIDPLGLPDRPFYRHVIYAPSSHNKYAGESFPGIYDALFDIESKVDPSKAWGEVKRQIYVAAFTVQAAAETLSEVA

The match of structure and compound is tentative.

The target of this series is PSMA (Homo sapiens, UniProt Q04609). The conditions noted are these: LNCaP cells; reference compounds, assayed under identical conditions (literature cited in table title); # = free mas3-chelator; cited from earlier work.

Usually IC50 stands for the concentration that inhibits the measured activity by half. As to `C[N+]1=C(/C=C/C=C/C=C2/N(CCCCCC(=O)NCCCC[C@@H](NC(=O)CCC(C(=O)O)N3CCN(CC(=O)O)CCN(CC(=O)O)CCN(CC(=O)O)CC3)C(=O)N[C@H](Cc3ccc(O)c(I)c3)C(=O)N[C@H](Cc3ccc(O)c(I)c3)C(=O)N[C@H](CCCCNC(=O)CCCCCCC(=O)NCCCC[C@H](NC(=O)N[C@@H](CCC(=O)O)C(=O)O)C(=O)O)C(=O)O)c3ccc(S(=O)(=O)[O-])cc3C2(C)C)C(C)(C)c2cc(S(=O)(=O)O)ccc21` (single isomer, unassigned), the IC50 was 10.5 nM.
